Data taken from US10086086B2, “Payload molecule delivery using molecular rebar” (Molecular Rebar Design, LLC, priority 2014, dated 2018).

Conditions: Example 8: room temperature

## CCOP(=O)(Cc1ccc(OC)cc1)OCC [D4MBP]
  time to reach equilibrium concentration of adsorbed D4MBP: 5 h
